Reference: publication PMC12869235
These are yes or no findings as the source states them, for the method shown. Binding can be weak; no strength is given.

Molecular target: TaDOG1L1 (pGBKT7-TaDOG1L1) (wheat)
Test: two-hybrid; MatchMaker Gold system, yeast AH109; pGADT7-TaPP2C-a5s co-transformed with pGBKT7-TaDOG1Ls or pGBKT7-TaSnRK2s; selected on DDO, examined on TDO and QDO with or without 10 μM ABA

binding: binds
Substance: TaPP2C-a5.1 (pGADT7-TaPP2C-a5.1) (from UniProt A0A3B6EGI9) (enzyme)
